Measurements taken from publication PMC11705415.
No constants are given. Whether binding was seen depends on the method and setting. In cells and extracts the contact can be indirect. Some entries that bind do so weakly or less than the wild type. For part of these data: Tags and fused reporters may be left off the sequences shown.

Chains of the proteins cited; added tags and fusions are not shown. Lines headed by an entry give the natural chain unless they say otherwise; changes in a name come on top.
UniProt P28740: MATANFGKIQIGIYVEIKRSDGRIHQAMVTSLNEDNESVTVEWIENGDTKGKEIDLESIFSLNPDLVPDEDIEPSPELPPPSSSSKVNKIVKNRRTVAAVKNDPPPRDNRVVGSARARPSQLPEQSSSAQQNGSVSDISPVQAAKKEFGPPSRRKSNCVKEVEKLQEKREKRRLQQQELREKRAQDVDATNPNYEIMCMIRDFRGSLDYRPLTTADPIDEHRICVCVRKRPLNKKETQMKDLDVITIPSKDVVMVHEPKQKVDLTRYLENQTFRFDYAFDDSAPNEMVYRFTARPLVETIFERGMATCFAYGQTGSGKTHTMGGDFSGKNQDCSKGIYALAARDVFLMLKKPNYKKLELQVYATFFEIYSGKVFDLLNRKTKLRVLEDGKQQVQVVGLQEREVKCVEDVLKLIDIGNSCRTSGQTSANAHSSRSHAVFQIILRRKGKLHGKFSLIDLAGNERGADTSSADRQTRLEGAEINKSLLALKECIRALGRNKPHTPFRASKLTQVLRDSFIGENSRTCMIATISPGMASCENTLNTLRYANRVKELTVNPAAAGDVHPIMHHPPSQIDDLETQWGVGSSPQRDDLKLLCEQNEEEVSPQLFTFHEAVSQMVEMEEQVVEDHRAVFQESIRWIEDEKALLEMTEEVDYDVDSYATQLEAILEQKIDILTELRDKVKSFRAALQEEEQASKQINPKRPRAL
UniProt P62069: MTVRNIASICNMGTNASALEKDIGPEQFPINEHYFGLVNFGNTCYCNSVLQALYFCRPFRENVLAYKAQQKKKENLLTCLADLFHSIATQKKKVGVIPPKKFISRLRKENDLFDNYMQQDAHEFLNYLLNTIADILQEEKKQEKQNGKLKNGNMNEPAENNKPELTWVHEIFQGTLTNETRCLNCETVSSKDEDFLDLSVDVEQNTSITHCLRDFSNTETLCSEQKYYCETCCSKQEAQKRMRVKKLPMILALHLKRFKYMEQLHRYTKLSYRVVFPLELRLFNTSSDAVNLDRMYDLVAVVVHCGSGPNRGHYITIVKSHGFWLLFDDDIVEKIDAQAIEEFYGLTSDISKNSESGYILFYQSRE

How the values were obtained:
Test in all cases: split reporter; BiFC: VN155(I152L)-USP46 and VC155-tagged protein co-expressed in Neuro2a cells, fixed after 24 h, fluorescence of reconstituted Venus by microscopy
VC-tagged HOOK3 = target: T1, VC-tagged HOOK3 (UniProt Q8BUK6)
T1 sequence: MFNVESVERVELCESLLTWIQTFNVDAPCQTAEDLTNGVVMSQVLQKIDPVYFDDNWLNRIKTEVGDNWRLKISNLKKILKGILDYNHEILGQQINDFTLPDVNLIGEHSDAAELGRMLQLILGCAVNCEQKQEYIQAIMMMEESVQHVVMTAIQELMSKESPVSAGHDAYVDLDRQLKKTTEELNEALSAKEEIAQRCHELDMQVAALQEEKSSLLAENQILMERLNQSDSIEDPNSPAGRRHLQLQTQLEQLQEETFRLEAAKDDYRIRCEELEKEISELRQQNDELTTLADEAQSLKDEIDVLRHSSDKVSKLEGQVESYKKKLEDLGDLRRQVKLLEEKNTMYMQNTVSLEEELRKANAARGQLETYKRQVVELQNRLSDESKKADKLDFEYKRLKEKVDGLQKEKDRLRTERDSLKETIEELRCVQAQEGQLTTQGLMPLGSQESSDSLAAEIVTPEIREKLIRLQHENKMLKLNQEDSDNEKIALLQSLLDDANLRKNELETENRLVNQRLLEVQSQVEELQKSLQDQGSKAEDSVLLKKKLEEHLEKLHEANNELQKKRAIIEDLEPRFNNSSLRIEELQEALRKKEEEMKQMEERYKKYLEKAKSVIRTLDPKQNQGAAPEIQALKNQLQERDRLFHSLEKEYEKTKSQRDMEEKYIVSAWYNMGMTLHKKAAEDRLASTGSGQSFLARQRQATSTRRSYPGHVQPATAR

VC-tagged SIRT2 = target: T2, VC-tagged SIRT2 (UniProt Q8VDQ8)
T2 sequence: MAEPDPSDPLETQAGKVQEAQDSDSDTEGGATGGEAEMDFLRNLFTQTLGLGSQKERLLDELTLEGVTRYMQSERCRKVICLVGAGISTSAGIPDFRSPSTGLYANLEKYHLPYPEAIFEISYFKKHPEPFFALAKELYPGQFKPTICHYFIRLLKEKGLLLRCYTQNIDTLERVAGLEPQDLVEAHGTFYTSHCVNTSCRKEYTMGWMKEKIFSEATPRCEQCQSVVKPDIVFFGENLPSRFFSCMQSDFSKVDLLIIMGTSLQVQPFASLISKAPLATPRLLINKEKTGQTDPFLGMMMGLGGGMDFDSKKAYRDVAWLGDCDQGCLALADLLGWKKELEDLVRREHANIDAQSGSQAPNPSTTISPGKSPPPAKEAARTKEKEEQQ

VC-tagged HAP1 = target: T3, VC-tagged HAP1 (UniProt O35668)
T3 sequence: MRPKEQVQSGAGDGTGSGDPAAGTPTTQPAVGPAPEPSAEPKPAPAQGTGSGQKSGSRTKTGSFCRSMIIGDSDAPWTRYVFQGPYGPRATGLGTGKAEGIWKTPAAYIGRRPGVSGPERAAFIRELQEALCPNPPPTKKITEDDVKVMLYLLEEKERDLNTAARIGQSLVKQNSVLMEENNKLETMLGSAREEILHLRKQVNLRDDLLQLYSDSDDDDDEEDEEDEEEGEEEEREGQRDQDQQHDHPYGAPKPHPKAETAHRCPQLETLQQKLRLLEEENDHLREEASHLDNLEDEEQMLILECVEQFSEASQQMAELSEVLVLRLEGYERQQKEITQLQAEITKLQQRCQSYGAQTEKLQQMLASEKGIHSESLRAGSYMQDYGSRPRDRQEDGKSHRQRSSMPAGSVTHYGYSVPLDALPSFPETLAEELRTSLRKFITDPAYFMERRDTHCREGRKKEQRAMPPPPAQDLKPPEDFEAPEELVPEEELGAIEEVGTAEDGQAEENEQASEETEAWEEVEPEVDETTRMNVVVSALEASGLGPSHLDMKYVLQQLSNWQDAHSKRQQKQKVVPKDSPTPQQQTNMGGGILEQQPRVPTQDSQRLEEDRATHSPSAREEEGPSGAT

VC-tagged KIF2A = VC-tagged KIF2A (UniProt P28740)
VC-tagged AHI1 = target: T4, VC-tagged AHI1 (UniProt Q8K3E5)
T4 sequence: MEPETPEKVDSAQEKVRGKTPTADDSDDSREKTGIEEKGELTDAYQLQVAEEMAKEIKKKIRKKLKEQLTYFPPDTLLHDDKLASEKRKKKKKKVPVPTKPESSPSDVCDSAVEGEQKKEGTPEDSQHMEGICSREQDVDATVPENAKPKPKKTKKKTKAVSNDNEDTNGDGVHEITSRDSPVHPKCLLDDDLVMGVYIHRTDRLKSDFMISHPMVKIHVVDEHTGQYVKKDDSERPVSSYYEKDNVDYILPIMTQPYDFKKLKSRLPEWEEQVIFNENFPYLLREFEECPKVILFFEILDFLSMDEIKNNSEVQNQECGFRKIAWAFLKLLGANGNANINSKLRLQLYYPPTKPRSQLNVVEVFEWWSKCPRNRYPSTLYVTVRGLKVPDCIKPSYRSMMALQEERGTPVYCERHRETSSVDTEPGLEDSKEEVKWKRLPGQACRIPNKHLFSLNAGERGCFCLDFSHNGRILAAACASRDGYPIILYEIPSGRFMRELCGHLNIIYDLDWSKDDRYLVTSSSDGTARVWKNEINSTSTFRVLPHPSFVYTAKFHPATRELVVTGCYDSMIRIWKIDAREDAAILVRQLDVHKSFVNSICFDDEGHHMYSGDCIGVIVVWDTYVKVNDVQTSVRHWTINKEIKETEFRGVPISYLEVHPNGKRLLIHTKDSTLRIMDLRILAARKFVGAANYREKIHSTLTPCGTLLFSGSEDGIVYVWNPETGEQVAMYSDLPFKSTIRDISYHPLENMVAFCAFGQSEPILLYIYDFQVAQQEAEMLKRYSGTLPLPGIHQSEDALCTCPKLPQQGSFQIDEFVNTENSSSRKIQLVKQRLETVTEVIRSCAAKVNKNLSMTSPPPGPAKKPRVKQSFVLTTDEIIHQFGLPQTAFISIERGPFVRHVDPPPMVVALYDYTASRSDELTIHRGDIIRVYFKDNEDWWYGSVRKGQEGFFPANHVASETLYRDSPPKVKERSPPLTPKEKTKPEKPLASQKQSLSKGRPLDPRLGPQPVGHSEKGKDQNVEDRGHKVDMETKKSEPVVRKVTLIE

VC-tagged SNAP29 = target: T5, VC-tagged SNAP29 (UniProt Q9ERB0)
T5 sequence: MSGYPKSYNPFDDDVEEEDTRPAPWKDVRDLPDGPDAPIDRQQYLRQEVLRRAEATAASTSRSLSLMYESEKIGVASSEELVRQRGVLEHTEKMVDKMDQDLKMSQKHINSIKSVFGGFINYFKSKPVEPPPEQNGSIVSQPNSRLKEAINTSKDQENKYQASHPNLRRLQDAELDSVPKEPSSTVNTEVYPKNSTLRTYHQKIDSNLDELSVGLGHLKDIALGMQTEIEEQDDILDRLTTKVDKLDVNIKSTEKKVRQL

Measured: binding

USP46 fused with the N-terminal fragment of Venus (VN155, I152L) (from UniProt P62069 1-366) (enzyme)
binds: all assays above
